Source: US20220289816A1, “IMMUNOTHERAPY WITH B*07 RESTRICTED PEPTIDES AND COMBINATION OF PEPTIDES AGAINST CANCERS AND RELATED METHODS” (Immatics Biotechnologies GmbH, priority 2018, published 2022)
For some of these results: Expression values are those of the mRNA of the gene that encodes the peptide; a gene is named only where it was looked up.

Experiments:
[1] = system: source genes of the peptides (mRNA); assay: Expression profiling of genes encoding the peptides (RNAseq of tumor and normal tissue RNA); design: species or system human
[2] = system: tumor tissue samples and normal tissue samples (HLA-B*07 positive); assay: Identification and quantitation of tumor associated peptides presented on the cell surface (HLA immunoprecipitation, label-free LC-MS); design: species or system human; settings: cancer entities on which the peptide was found presented (abbreviations in table head)
[3] = tumor entities in which the source gene of the peptide is highly over-expressed compared to a panel of normal tissues (RNAseq)
[4] = tumor entities in which the source gene of the peptide is over-expressed compared to a panel of normal tissues (RNAseq)
[5] = tumor entities in which the source gene of the peptide is very highly over-expressed compared to a panel of normal tissues (RNAseq)
[6] = tumor types in which the peptide's source gene is highly over-expressed compared to a panel of normal tissues, RNAseq
[7] = tumor types in which the peptide's source gene is over-expressed compared to a panel of normal tissues, RNAseq

| Substance | Gene Expression in tumor samples: Highly over-expressed (++) [1, 3] | Gene Expression in tumor samples: over-expressed (+) [1, 4] | Peptide Presentation on cancer entities ([2]; Table 8a) | other results |
| --- | --- | --- | --- | --- |
| 281: peptide found in SIGLEC15 (gene looked up) (NPRSPPATM; listed as Homo sapiens) [compound 281] | UBC | HCC, UEC | AML, OC | – |
| 128: peptide found in LOXL4 (gene looked up) (SPPATLFLFLL; listed as Homo sapiens) [compound 128] | MEL | CCC | OSCAR | – |
| 258: peptide found in BTLA (gene looked up) (SVIGPNSRL; listed as Homo sapiens) [compound 258] | CLL | NHL | SCLC | – |
| 274: peptide found in APOB (gene looked up) (KPIRTGISPLAL; listed as Homo sapiens) [compound 274] | HCC | – | CCC, HCC | – |
| 231: peptide found in APOB (gene looked up) (SPITLQAL; listed as Homo sapiens) [compound 231] | HCC | – | HCC | – |
| 347: peptide found in BRIP1 (gene looked up) (SPLEKINSF; listed as Homo sapiens) [compound 347] | – | MEL, SCLC | GBC | – |
| 106: peptide found in NMUR2 (gene looked up) (APFHIDRLF; listed as Homo sapiens) [compound 106] | – | NSCLCsquam, PACA, UEC | OC, RCC | – |
| 60: peptide found in F5 (gene looked up) (RPYSIYPHGVTF; listed as Homo sapiens) [compound 60] | HCC | CCC | CCC, GBC, HCC | – |
| 354: peptide found in TRIO (gene looked up) (APAKDARASL; listed as Homo sapiens) [compound 354] | – | GBM | CRC, GBC, HNSCC, NSCLCadeno, NSCLCsquam, OC, OSCAR, UBC | – |
| 330: peptide found in MORC4 (gene looked up) (RPFSAIAEL; listed as Homo sapiens) [compound 330] | – | CCC | GBC | – |
| 14: peptide found in MMP12 (gene looked up) (AVHEIGHSL; listed as Homo sapiens) [compound 14] | CCC, GC, MEL, NHL, NSCLCadeno, OC, PACA, UEC | HCC, RCC | NSCLCadeno | Gene Expression in tumor samples: very highly over-expressed (+++) [1, 5]: CRC, GBC, HNSCC, NSCLCother, NSCLCsqua; m, OSCAR, SCLC, UBC |
| 66: peptide found in NMUR2 (gene looked up) (LPMTVISVL; listed as Homo sapiens) [compound 66] | – | PACA, UEC | GBC | – |
| 147: peptide found in CTLA4 (gene looked up) (HVAQPAVVL; listed as Homo sapiens) [compound 147] | CLL | NHL | BRCA, HCC | – |
| 43: peptide found in BMPR1B (gene looked up) (APTPRPKVL; listed as Homo sapiens) [compound 43] | BRCA | PRCA, UEC | BRCA | – |
| 33: peptide found in PGR (gene looked up) (LPRGLSPARQL; listed as Homo sapiens) [compound 33] | UEC | BRCA | UEC | – |
| 31: peptide found in KISS1R (gene looked up) (RPGPSDPAA; listed as Homo sapiens) [compound 31] | RCC | NSCLCadeno, UEC | NSCLCadeno | – |
| 266: peptide found in LOXL3 (gene looked up) (KPYEGRVEI; listed as Homo sapiens) [compound 266] | MEL | – | CLL, GBM | – |
| 449: peptide found in MMP12 (gene looked up) (RPKTSVNLISSL; listed as Homo sapiens) [compound 449] | – | – | – | Gene Expression in tumor samples: Highly over-expressed (++) [1, 6]: CCC, GBC, GC, MEL, NSCLCadeno, OC, OSCAR, PACA, UBC.; UEC; Gene Expression in tumor samples: over-expressed (+) [1, 7]: HCC, NHL, RCC; Gene Expression in tumor samples: very highly over-expressed (+++) ([1]; tumor types in which the peptide's source gene is very highly over-expressed compared to a panel of normal tissues, RNAseq): CRC, HNSCC, NSCLCother, NSCLCsqua; m, SCLC; Peptide Presentation on cancer entities ([2]; Table 8b): SCLC |

| Substance | Gene Expression in tumor samples: Highly over-expressed (++) [1, 3] | Gene Expression in tumor samples: over-expressed (+) [1, 4] | Peptide Presentation on cancer entities ([2]; Table 8a) | other results |
| --- | --- | --- | --- | --- |
| 152: peptide found in PTPRZ1 (gene looked up) (SSASFSSELFRH; listed as Homo sapiens) [compound 152] | GBM | – | BRCA, CCC, OSCAR, PACA, SCLC, UEC | – |
| 182: peptide found in ADAM12 (gene looked up) (RPLPVSPARAL; listed as Homo sapiens) [compound 182] | BRCA, HNSCC, OSCAR | CCC, CRC, GBC, GBM, GC, MEL, NHL, NSCLCadeno, NSCLCother, NSCLCsquam, OC, PACA, UBC, UEC | BRCA, NSCLCadeno, NSCLCsquam | – |
| 149: peptide found in NAT1 (gene looked up) (SPSSVFTSK; listed as Homo sapiens) [compound 149] | BRCA | – | BRCA | – |
| 202: peptide found in MPL (gene looked up) (SPSREASAL; listed as Homo sapiens) [compound 202] | AML | – | CLL, GBM, UBC | – |
| 42: peptide found in CCL17 (gene looked up) (APLKMLAL; listed as Homo sapiens) [compound 42] | NHL | – | MEL, OC | – |
| 167: peptide found in DNMT3B (gene looked up) (NVNPARKGL; listed as Homo sapiens) [compound 167] | AML | OC, OSCAR | AML | – |
| 222: peptide found in APOB (gene looked up) (MLKTTLTAF; listed as Homo sapiens) [compound 222] | HCC | – | HCC | – |
| 199: peptide found in MPL (gene looked up) (SPFWIHQA; listed as Homo sapiens) [compound 199] | AML | – | AML | – |
| 262: peptide found in EGFR (gene looked up) (SPSTSRTPLLSSL; listed as Homo sapiens) [compound 262] | GBM | – | BRCA, CCC, GBC, GBM, HCC, HNSCC, NHL, OSCAR, RCC, UEC | – |
| 236: peptide found in APOB (gene looked up) (TPELKSSIL; listed as Homo sapiens) [compound 236] | HCC | – | HCC | – |
| 254: peptide found in PHEX (gene looked up) (RVIQGTTTL; listed as Homo sapiens) [compound 254] | CLL | NHL | HCC | – |
| 16: peptide found in CYP4Z1 (gene looked up) (FPAPPAHWF; listed as Homo sapiens) [compound 16] | – | – | BRCA | Gene Expression in tumor samples: very highly over-expressed (+++) [1, 5]: BRCA |
| 90: peptide found in MMP1 (gene looked up) (HAIEKAFQL; listed as Homo sapiens) [compound 90] | – | CRC, MEL, NSCLCadeno, PACA | CRC | Gene Expression in tumor samples: very highly over-expressed (+++) [1, 5]: HNSCC |
| 451: peptide found in PGR (gene looked up) (VPILPLNHAL; listed as Homo sapiens) [compound 451] | – | – | – | Gene Expression in tumor samples: Highly over-expressed (++) [1, 6]: UEC; Gene Expression in tumor samples: over-expressed (+) [1, 7]: BRCA; Peptide Presentation on cancer entities ([2]; Table 8b): UEC |
| 249: peptide found in LGR5 (gene looked up) (SPRSGVLL; listed as Homo sapiens) [compound 249] | UEC | – | OSCAR, UEC | – |
| 297: peptide found in MET (gene looked up) (FPIKYVNDF; listed as Homo sapiens) [compound 297] | – | CCC, GBC, NSCLCadeno | RCC | – |
| 1: peptide found in KLK2 (gene looked up) (RPRSLQCVSL; listed as Homo sapiens) [compound 1] | – | CLL | PRCA | Gene Expression in tumor samples: very highly over-expressed (+++) [1, 5]: PRCA |
